Assay results taken from PMC8406168.

By UniProt entry, the sequences of proteins in these tests, tags left out.
UniProt Q05322: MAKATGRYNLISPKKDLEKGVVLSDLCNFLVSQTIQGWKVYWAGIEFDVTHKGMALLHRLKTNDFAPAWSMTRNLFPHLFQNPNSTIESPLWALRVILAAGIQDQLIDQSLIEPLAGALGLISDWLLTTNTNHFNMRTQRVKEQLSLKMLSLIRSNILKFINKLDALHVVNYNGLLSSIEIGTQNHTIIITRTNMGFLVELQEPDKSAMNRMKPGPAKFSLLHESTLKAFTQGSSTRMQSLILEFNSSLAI

Target: HA-tagged Mayinga EBOV VP24 (Zaire ebolavirus (EBOV), strain Mayinga) (UniProt Q05322)
Assay: co-IP

emerin (endogenous, BSR-T7 cells) (from UniProt A0A1U7R6B2)
binding: binds

No constants are given. Whether binding was seen depends on the method and setting. In cells and extracts the contact can be indirect. Binding can be weak; no strength is given.
